Out of some 68,000 compounds screened, about 60 (0.09%) were called active. Inconclusive results, whose numbers are uncertain, are shown with a selection of clear calls. The call rests on the fitted dose curve; in most records, active means well fitted curve in the direction sought with a large enough effect; inconclusive means small, poorly fitted or top-dose-only effect; inactive means flat fitted curve, though single readings scatter. A potency beside an inconclusive call is a rough fit, not a confirmed value. A structure can be active in one record and inactive in another.
Experiment: qHTS Assay for Epigenetic Modulators; on GFP derepression (activation): % of control where 0% means no effect
Details: mouse C127i GFP locus derepression, cytometry, 30 h; series mostly up to 46.1 µM
From the text: NIH Molecular Libraries Screening Centers Network [MLSCN] NIH Chemical Genomics Center [NCGC] MLSCN Grant: 1 X01 MH079860-01 Assay Provider: Elisabeth D. Martinez, University of Texas SW Medical Center NCGC Assay Overview: The Locus Derepression assay detects the derepression of a GFP reporter that is stably integrated in a region of the genome of murine c127i mammary cells that is presumably silenced. GFP transcription in this construct is controlled by a CMV promoter, which normally is strong and constitutively active. However, this line was selected for lack of constitutive expression of the GFP protein. GFP production can be induced by incubating the cells with histone deacetylase or DNA methyltransferase inhibitors. Compounds that cause derepression of the locus to express GFP are identified by enumerating GFP positive cells using a laser-scanning microplate cytometer. For further details of this screen and follow-up characterization, see R.L. Johnson, W. Huang, A. Jadhav, C.P. Austin, J. Inglese, E.D. Martinez, A Quantitative High-Throughput Screen Identifies Potential Epigenetic Modulators of Gene Expression, Analytical Biochemistry (2008) 375(2):237-48.
NCGC Assay Protocol Summary: Two hundred and fifty cells in 5 uL per well were dispensed into black, clear-bottom 1536-well plates. Twenty-three nL compound was transferred to the assay plate and cells were incubated 30 hours at 37 C. Medium was removed, cells were washed two times with PBS, and GFP-positive cells were enumerated as fluorescent objects between the sizes of 20 to 120 um width and depth using an Acumen Explorer. Keywords: NIH Roadmap, MLSCN, MLI, MLSMR, qHTS, NCGC, qHTS, HDAC, DNMT, HAT, DNA methyltransferases, histone acetyl transferases, histone deacetylases

Row | SMILES | Potency | GFP derepression (activation)
1 | CC(C)C(=O)NC(c1ccco1)c1ccc2cccnc2c1O (centres undefined) | active: 3.98 µM | 
2 | CCN(CC)c1ccc2c(Cl)c(Br)c(=O)oc2c1 | active: 10 µM | 
3 | CCOC(=O)N1CCN(C/C(C)=C/c2ccccc2)CC1 | inconclusive: 5.01 µM [single point] | 
4 | c1ccc(/C(=N/Nc2nc3ccccc3s2)c2ccccn2)cc1 | inconclusive: 5.01 µM [single point] | 
5 | CCn1nnnc1SCC(=O)N(C1CCCCC1)C1CCCCC1 | inconclusive: 25.1 µM [single point] | 
6 | COc1ccccc1Cn1c(-c2ccco2)nc2nc3ccccc3nc21 | active: 12.6 µM | 
7 | N[C@H](Cc1ccc(F)cc1)C(=O)O | inactive | 
8 | Oc1ccc(CNCc2ccccc2)c2cccnc12 | inconclusive: 5.01 µM [single point] | 
9 | CC(=O)NCCN=C(C)c1sc2ccccc2c1O | inconclusive: 31.6 µM [single point] | 
10 | CCOC(=O)c1cnc2c(C(F)(F)F)cccc2c1N1CCOCC1 | inconclusive: 31.6 µM [single point] | 
11 | COc1ccc(OCCC(=O)NC2=NCCS2)cc1 | inconclusive: 31.6 µM [single point] | 
12 | S=C(Nc1ccccn1)c1ccccn1 | active: 3.98 µM | 
13 | COc1cccc(Nc2ncccc2C(=O)NCc2ccccc2)c1 | inconclusive: 20 µM [single point] | 
14 | O=C(O)c1ccc2c3c(cccc13)C(=O)N(c1ccccc1O)C2=O | inconclusive: 31.6 µM [single point] | 
15 | Cc1nn(-c2ccc(S(=O)(=O)O)cc2)c(O)c1N=Nc1ccc(-c2ccc(N=Nc3ccc4c(S(=O)(=O)O)cc(S(=O)(=O)O)c(N)c4c3O)c(O)c2)cc1O.[Cu].[Cu] |  | inactive: 0% [at 9.22 µM]
16 | CC(C)C[C@H](N)CSSC[C@@H](N)CC(C)C | inconclusive: 31.6 µM [single point] | 
17 | COc1ccc(-n2c(N)c(-c3nc4ccccc4n3C)sc2=S)cc1 | inconclusive: 20 µM [single point] | 
18 | Cc1cc2c(N=O)c(NO)ccc2[nH]1 | inconclusive: 31.6 µM [single point] | 
19 | CCOc1ccc(-c2nnc3sc(COc4ccc(C)cc4)nn23)cc1 | inactive | 
20 | COc1ccc(CCN2CCC(Nc3nc4ccccc4n3Cc3ccc(F)cc3)CC2)cc1 | active: 10 µM | 
21 | CCOC(=O)N1CCN(C(=O)CN(c2cccc(C)c2)S(=O)(=O)c2ccccc2)CC1 | inconclusive: 31.6 µM [single point] | 
22 | COc1ccc(N2CCN(C(=O)CCCn3c(=S)[nH]c4cc5c(cc4c3=O)OCO5)CC2)cc1 | inconclusive: 5.01 µM [single point] | 
23 | Cc1cc(C(F)(F)F)c2c(N)c(C(=O)Nc3cc(C)on3)sc2n1 | inconclusive: 31.6 µM [single point] | 
24 | Cn1c(=O)oc2cc(S(=O)(=O)N3CCN(c4ccccc4)CC3)ccc21 | inconclusive: 31.6 µM [single point] | 
25 | O=C1/C(=C/c2ccccc2)[C@@H](NC2CCCCC2)c2ccccc21 | inconclusive: 1.26 µM [single point] | 
26 | CCOC(=O)c1ccc(NC(=O)C2CCCN(S(=O)(=O)c3cnc[nH]3)C2)cc1 (centres undefined) | inconclusive: 31.6 µM [single point] | 
27 | CN(C)/C=c1\sc2c(C#N)cc(C(=O)c3ccc(Br)cc3)n2c1=O | inconclusive: 31.6 µM [single point] | 

Row | SMILES | Potency | GFP derepression (activation)
28 | COC(=O)c1ccc2c(=O)n(CCN3CCOCC3)c(SCC(=O)c3ccccc3)nc2c1 | inconclusive: 5.01 µM [single point] | 
29 | O=C(O)CS(=O)c1ccc2c3c(cccc13)C(=O)c1ccccc1-2 (centres undefined) | inconclusive: 3.98 µM [single point] | 
30 | COc1ccccc1-c1cc(C(=O)NCc2ccco2)no1 | inactive | 
31 | CNc1ncnc2ccc(-c3ccccc3OC)cc12 |  | inactive: 5.2% [at 9.22 µM]
32 | CCOc1ccc(C2C(C#N)=C(N)N3C(=C2C#N)Sc2ccccc23)cc1 (centres undefined) | inconclusive: 31.6 µM [single point] | 
33 | COC(=O)Nc1sccc1C(=O)Nc1sccc1C(=O)OC | inconclusive: 31.6 µM [single point] | 
34 | COc1cc(SC)ccc1C(=O)Nc1ccon1 | inactive | 
35 | Cc1c(N(C)CS(=O)(=O)O)c(=O)n(-c2ccccc2)n1C | inactive | 
36 | CC(C)Cc1nc2oc3c(N4CCN(CCO)CC4)ncnc3c2c2c1CCCC2 | inactive | 
37 | COc1ccc(-n2c(=O)c(-c3cccs3)nc3cnc(Oc4ccccc4)nc32)cc1 |  | inactive: 2.7% [at 9.22 µM]
38 | CC(=O)[C@@]1(O)Cc2c(O)c3c(c(O)c2[C@H](O[C@H]2C[C@H](N)[C@H](O)[C@H](C)O2)C1)C(=O)c1ccccc1C3=O | active: 12.6 µM | 
39 | N=c1c(C(=O)NCc2ccccc2)cc2c(=O)n3ccccc3nc2n1Cc1ccco1 | inconclusive: 5.01 µM [single point] | 
40 | COc1cc(C2=NOC(C(=O)N3CCCc4ccccc43)C2)cc(OC)c1OC (centres undefined) | inactive | 
41 | COC(=O)c1ccccc1OCC(=O)NC1CCCCC1 | inconclusive: 3.98 µM [single point] | 
42 | COCCNc1nc(-n2nc(C)cc2C)nc2sc3c(c12)CCCC3 | inconclusive: 20 µM [single point] | 
43 | CCOC(=O)CSc1nc2cc3c(cc2cc1C#N)OCO3 | inconclusive: 31.6 µM [single point] | 
44 | CN1/C(=C/C(=O)c2nc(S(C)(=O)=O)ncc2Cl)C(C)(C)c2ccccc21 | inconclusive: 5.01 µM [single point] | 
45 | CCOc1cccc(=O)c2c(C)n(Cc3ccco3)c(C)c12 | inconclusive: 31.6 µM [single point] | 
46 | CCC(=O)Nc1ccc2nc(C)n(CC(=O)Nc3ccccc3)c(=O)c2c1 | inactive | 
47 | O=C1CC(N2CCCCCC2)C(=O)N1c1ccc2c(c1)OCO2 (centres undefined) | inconclusive: 31.6 µM [single point] | 
48 | CC(=C1C2C=CC1C1C(=O)NC(=O)C21)c1ccccc1 (centres undefined) | inconclusive: 31.6 µM [single point] | 
49 | CC1(C)Cc2noc(N)c2C(C)(C)N1O | inconclusive: 5.01 µM [single point] | 
50 | O=S(=O)(Cc1ccccc1)N1CCCC1 | inconclusive: 31.6 µM [single point] | 
51 | Oc1c(CN2CCN(c3ccccn3)CC2)cc(Cl)c2cccnc12 | active: 3.16 µM | 
52 | CCOC(=O)c1csc(NC(=O)CSc2nnnn2CC)n1 | inactive | 
53 | COC(=O)C(C#N)c1nc2ccccc2nc1N1CCN(Cc2ccc3c(c2)OCO3)CC1 (centres undefined) | inconclusive: 31.6 µM [single point] | 
54 | CCOC(=O)c1cnc(-n2nc(C)cc2C)nc1NCc1ccccc1 | inconclusive: 31.6 µM [single point] | 

Reformatted: 4 of the compounds above.

| Row | SMILES | Potency | GFP derepression (activation) |
| --- | --- | --- | --- |
| 28 | COC(=O)c1ccc2c(=O)n(CCN3CCOCC3)c(SCC(=O)c3ccccc3)nc2c1 | inconclusive: 5.01 µM [single point] |  |
| 34 | COc1cc(SC)ccc1C(=O)Nc1ccon1 | inactive |  |
| 44 | CN1/C(=C/C(=O)c2nc(S(C)(=O)=O)ncc2Cl)C(C)(C)c2ccccc21 | inconclusive: 5.01 µM [single point] |  |
| 45 | CCOc1cccc(=O)c2c(C)n(Cc3ccco3)c(C)c12 | inconclusive: 31.6 µM [single point] |  |

Later entries.

Row | SMILES | Potency | GFP derepression (activation)
55 | CCCc1ccc(Oc2c(-c3ccc(O)c(C)c3O)n[nH]c2C)cc1 | inactive | 
56 | Cc1c(-n2cc(C(=O)O)c(=O)c3cc(F)c(N4CCCC4)c(F)c32)c(=O)n(-c2ccccc2)n1C | inconclusive: 31.6 µM [single point] | 
57 | COc1ccccc1-c1nc(S(=O)(=O)c2ccc(Cl)cc2)c(N(C)C)o1 | inactive | 
58 | Cc1cc(N=Cc2c(O)n(-c3ccc4c(c3)OCO4)c(=O)c3ccccc23)ccn1 | inconclusive: 31.6 µM [single point] | 
59 | COc1ccccc1-c1cc(C(F)(F)F)nc(S(=O)(=O)CCCC(=O)NC(C)C)n1 | inconclusive: 5.01 µM [single point] | 
60 | COc1cccc(NC(=O)c2ccc(CN3CCOCC3)cc2)c1 | inactive | 
61 | O=C(Nc1ccc(-c2nc3ccccc3o2)c(O)c1)c1cc(-n2cnnc2)ccc1Cl | inactive | 
62 | C=CCn1c(=O)/c(=C/c2cc(OC)c(OC)c(OC)c2)s/c1=C(/C#N)c1nc2ccccc2n1C | inconclusive: 31.6 µM [single point] | 
63 | COCCn1c(-c2ccc(Cl)cc2)cnc1SCC(=O)NCc1cccs1 | inactive | 
64 | N#Cc1c(C(F)(F)F)cc(-c2ccccc2)nc1SCc1nc(N)nc(N2CCOCC2)n1 | active: 10 µM | 
65 | CCN(CC)c1ccc2cc(-c3nnc(-c4ccncc4)o3)c(=O)oc2c1 | active: 2 µM | 
66 | Cc1nc2ccc(Nc3nc4cc(S(=O)(=O)N5CCOCC5)ccc4o3)cc2s1 | inactive | 
67 | C=CCOc1ccccc1/C=N/O | inactive | 
68 | O=C(Nc1ccc(N2CCN(C(=O)c3ccc(Cl)cc3)CC2)cc1)c1ccc(Br)o1 | inconclusive: 15.8 µM [single point] | 
69 | CC(=O)CC1OC(=O)C(Br)=C1NCc1ccccc1 (centres undefined) | active: 12.6 µM | 
70 | COc1ccc(-c2c3c(=O)n(C)c(=O)n(C)c3c3nnc4ccccc4n23)cc1 | inconclusive: 31.6 µM [single point] | 
71 | Oc1ccc(CN2CCN(Cc3ccccc3)CC2)c2cccnc12 | inconclusive: 5.01 µM [single point] | 
72 | O=C(CN(C1CCCCC1)S(=O)(=O)c1ccc(F)cc1)NC1CC1 | inconclusive: 5.01 µM [single point] | 
73 | O=C(c1ccccc1)C1C(=O)c2ccccc2C1=O | inconclusive: 15.8 µM [single point] | 
74 | NS(=O)(=O)c1ccc(CCNC(=O)NC2(C(F)(F)F)Oc3ccccc3O2)cc1 | inconclusive: 31.6 µM [single point] | 
75 | COc1cccc(-c2cncnc2N(C)Cc2ccco2)c1 | inconclusive: 3.98 µM [partial curve] | 
76 | COC(=O)c1ccccc1NC(=O)COC(=O)c1cccnc1 | inactive | 
77 | CCOC(=O)c1csc(Nc2nc3ccc(F)cc3s2)n1 | inconclusive: 25.1 µM [single point] | 
78 | CCOC(=O)CSc1cccc2cccnc12 | inconclusive: 5.01 µM [single point] | 
79 | c1cncc(-c2nc(-c3ccc4c(c3)OCO4)cs2)c1 | inactive | 
